# Results: PubChem BioAssay AID1671190 (National Center for Advancing Translational Sciences (NCATS), 2021)
# Protein sequences, listed by entry. Tags and fused reporters are not part of them. Lines headed by an entry give the natural chain unless they say otherwise; changes in a name come on top.
# UniProt P18054: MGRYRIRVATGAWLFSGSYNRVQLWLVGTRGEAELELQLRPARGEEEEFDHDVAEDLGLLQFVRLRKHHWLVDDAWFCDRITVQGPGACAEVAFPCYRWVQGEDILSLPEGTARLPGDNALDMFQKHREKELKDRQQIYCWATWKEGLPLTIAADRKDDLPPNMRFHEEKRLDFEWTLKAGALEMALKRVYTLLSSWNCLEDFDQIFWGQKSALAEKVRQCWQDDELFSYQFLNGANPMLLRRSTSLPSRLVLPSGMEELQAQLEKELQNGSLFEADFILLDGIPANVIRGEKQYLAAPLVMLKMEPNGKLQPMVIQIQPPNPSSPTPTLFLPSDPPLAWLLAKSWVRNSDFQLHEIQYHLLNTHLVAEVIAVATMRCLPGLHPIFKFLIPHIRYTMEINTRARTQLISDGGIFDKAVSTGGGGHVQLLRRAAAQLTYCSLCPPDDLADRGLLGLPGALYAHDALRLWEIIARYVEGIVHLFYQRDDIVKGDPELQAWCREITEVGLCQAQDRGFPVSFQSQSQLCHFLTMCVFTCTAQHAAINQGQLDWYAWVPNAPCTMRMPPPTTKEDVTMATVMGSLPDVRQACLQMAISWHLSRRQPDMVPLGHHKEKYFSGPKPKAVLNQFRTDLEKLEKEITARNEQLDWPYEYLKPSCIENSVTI
# The campaign covered roughly 580,000 compounds. About 6,100 (1.1%) were called active. The shares of active, inactive and inconclusive entries below differ from those in the screen. Calls follow the shape of the dose curve; as a rule, active = well fitted inhibition curve with a large enough effect; inconclusive = small, poorly fitted or top-dose-only effect, or another doubt; inactive = no such curve, though single readings can be large or run the other way. Potencies of inconclusive entries are doubtful fits and often do not repeat.
# Target: Polyunsaturated fatty acid lipoxygenase ALOX12 (Homo sapiens) (UniProt P18054)
# Experiment: Primary qHTS assay for inhibitors of human arachidonate 12S-lipoxygenase (ALOX12): Round 2
# Details: purified 12hLO, xylenol orange hydroperoxide absorbance; activity change, negative = inhibition: at 108 µM (top of the series) unless noted
# How it was run: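 Purified human 12hLO at 150 nM in 25 mM Hepes, 0.01% Triton X-100, pH 7.0, preincubated 15 min at room temperature with compound. Reaction started with 40 uM arachidonic acid, 30 min at room temperature. Hydroperoxide measured by Fe-xylenol orange, 573/405 nm absorbance ratio.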
# % is scaled to controls: 0 for no effect and ±100 for the full control effect; potency is read from the fitted curve at half-maximal effect.
Compound,Potency,"activity change, negative = inhibition"
Cc1cc(N2CCOCC2)nc2ccc(NC(=O)NC(C)C)cc12,"inconclusive: 28.2 µM [inhibitor, single point]",–
COC(=O)[C@]1(C#N)[C@@H](c2ccccc2)C(=O)N(Cc2ccc(Cl)cc2)[C@@H]1c1ccc(OC)cc1,inactive,–
C1=C(c2cccs2)CC(c2cccs2)=NN=C1c1cccs1,"inconclusive: 100 µM [inhibitor, single point]",–
Cc1oc2cc(OCC(=O)N3CCCC3)ccc2c(=O)c1Oc1ccccc1,"inconclusive: 25.1 µM [inhibitor, partial curve, poor fit]",–
CCCC(c1nnnn1Cc1ccc(F)cc1)N1CCN(C2CCCCC2)CC1 (centres undefined),"inconclusive: 35.5 µM [inhibitor, single point]",–
Cc1cccc(N2C(=O)C(O)=C(C(=O)c3cccs3)C2c2ccc(C(C)C)cc2)n1 (centres undefined),"inconclusive: 44.7 µM [inhibitor, partial curve, poor fit]",–
CS(=O)(=O)N1CCC(CC(=O)NCCCN2CCc3ccccc3C2)C1 (centres undefined),inactive,–
Cc1cccc(CNC[C@H]2Cn3c(-c4ccc(Cl)cc4)cnc3CO2)n1,inactive,–
CCc1ccc(C(NC(=O)C2CC2)c2cccc(F)c2)cc1 (centres undefined),"inconclusive: 100 µM [inhibitor, single point]",–
O=C(Nc1cc(C(F)(F)F)ccc1N1CCOCC1)c1ccccc1,inactive,–
O=C(Cn1ncc2c3ccccc3n(Cc3cccc(Cl)c3)c2c1=O)NC1CCCCCC1,"inconclusive: 35.5 µM [inhibitor, partial curve, poor fit]",–
S=C(NCc1ccc(Cl)c(Cl)c1)NCc1ccco1,"inconclusive: 44.7 µM [inhibitor, single point]",–
O=S(=O)(c1ccc(Br)cc1Cl)N1CCN(CCO)CC1,"inconclusive: 12.6 µM [inhibitor, partial curve, poor fit]",–
O=C(Nc1ccccc1C(=O)N/N=C/c1ccccc1)c1ccco1,inactive,–
Cc1c(/N=C/c2ccco2)n(Cc2ccccc2)c2ccccc12,inactive,–
O=C(CNCC1CCCO1)N1CCN(S(=O)(=O)c2ccc3ccccc3c2)CC1 (centres undefined),inactive,–
Cc1csc(NC(=O)CS(=O)(=O)Cc2ccccc2)n1,inactive,–
Cc1ccc(S(=O)(=O)Nc2ccccc2-c2ccccc2NS(=O)(=O)c2ccc(C)cc2)cc1,inactive,–
COc1ccccc1N(C)S(=O)(=O)c1ccc(C(=O)OCC(=O)Nc2ccc(C(N)=O)cc2)cc1,"inconclusive: 126 µM [inhibitor, single point]",–
CC(C)(C)c1ccc(C2=NC(=O)C(CC(=O)O)S2)cc1 (centres undefined),"inconclusive: 50.1 µM [inhibitor, partial curve, poor fit]",–
COc1ccc(NS(=O)(=O)c2cc(NC(=O)CCSc3ccccc3)ccc2OC)cc1,inactive,–
O=C(COc1ccccc1Cl)NC(=S)Nc1ccc(CN2CCOCC2)cc1,inactive,–
CC(C)n1c(SCC(=O)N2CCCCC2)nc2c1c(=O)n(C)c(=O)n2C,inactive,–

# Record cards (already shown). Values in the order: Potency	activity change, negative = inhibition
# S=C(NCc1ccc(Cl)c(Cl)c1)NCc1ccco1 is entered as inconclusive: 44.7 µM [inhibitor, single point]	–
# Cc1cc(N2CCOCC2)nc2ccc(NC(=O)NC(C)C)cc12 is entered as inconclusive: 28.2 µM [inhibitor, single point]	–

# Next part.

Compound,Potency,"activity change, negative = inhibition"
O=C(c1ccc(C(F)(F)F)cc1)N1CCC(N2CCCS2(=O)=O)CC1,–,inactive: -5.17% [at 6.33 µM]
C=CCNc1cccc2c1S(=O)(=O)N[C@H](Cc1ccccc1)CO2,"inconclusive: 12.6 µM [inhibitor, full curve, poor fit]",–
COc1ccc(Cn2c(=O)[nH]c3cc(C(=O)NCc4ccc5c(c4)OCO5)ccc3c2=O)cc1,"inconclusive: 89.1 µM [inhibitor, partial curve, poor fit]",–
CC(C)CC(=O)n1nc(-c2ccco2)nc1NCc1cccs1,"inconclusive: 35.5 µM [inhibitor, partial curve]",–
CN(CC(=O)Nc1ccc(N2CCOCC2)cc1)CC(=O)Nc1ccc(N2CCOCC2)cc1,inactive,–
CCOC(=O)NC1(Nc2ccc(C)cc2)Oc2ccccc2O1,"inconclusive: 56.2 µM [inhibitor, partial curve, poor fit]",–
Cc1c(Cc2ccccc2)c(NCCN(C)C)n2c(nc3ccccc32)c1C#N,"inconclusive: 50.1 µM [inhibitor, partial curve, poor fit]",–
COc1ccc(-c2ccc(CCC(=O)O)n2NC(=O)c2ccccc2Cl)cc1,"inconclusive: 100 µM [inhibitor, single point]",–
Cc1ccc(S(=O)(=O)Nc2ccc3c(c2)CCCN3C(=O)c2cccs2)cc1,"inconclusive: 44.7 µM [inhibitor, single point]",–
COc1ccc2cnn(CC(=O)Nc3cc(F)cc(F)c3)c(=O)c2c1OC,inactive,–
CCOc1cc(C2C=C(C(=O)O)Nc3ncnn32)ccc1OC(C)C (centres undefined),"inconclusive: 2.82 µM [inhibitor, full curve]",–
COc1ccc(/C=C(/NC(=O)c2ccccc2)C(=O)NC2CCS(=O)(=O)C2)cc1 (centres undefined),inactive,–
O=C(O)c1cncc(SCc2ccccc2)n1,"inconclusive: 35.5 µM [inhibitor, partial curve, poor fit]",–
CC(C)(C)c1[nH]nc(C(=O)O)c1Br,"inconclusive: 25.1 µM [inhibitor, partial curve, poor fit]",–
C(=N\N1CCN(Cc2cccc3ccccc23)CC1)/c1cccs1,"inconclusive: 112 µM [inhibitor, partial curve, poor fit]",–
CN(Cc1ccc(-c2ccc(Cl)cc2)o1)C(=O)CNC(=O)c1ccccc1F,"inconclusive: 35.5 µM [inhibitor, partial curve, poor fit]",–
NS(=O)(=O)c1ccc(NC(=O)COC(=O)c2ncc(Cl)c(Cl)c2Cl)cc1,"inconclusive: 0.355 µM [inhibitor, full curve, poor fit]",–
S=C(NCc1ccc(Cl)cc1)Nc1ccc(Nc2ccccc2)cc1,active: 17.8 µM,–
O=C(CNC(=O)c1cccc(F)c1)N/N=C/c1cc(Br)ccc1OC(=O)/C=C/c1ccco1,"inconclusive: 44.7 µM [inhibitor, partial curve, poor fit]",–
NC(=O)c1c(NC(=O)C2CCCO2)sc2c1CCCC2 (centres undefined),"inconclusive: 50.1 µM [inhibitor, partial curve, poor fit]",–
C/C(=N/NC(=S)Nc1ccc(Cl)cc1)c1ccc(Br)cc1,"inconclusive: 31.6 µM [inhibitor, partial curve, poor fit]",–
O=C(Nc1ccc(Cl)cc1)C1Cc2c(-c3ccccc3)ccnc2O1 (centres undefined),"inconclusive: 79.4 µM [inhibitor, single point]",–
CCOC(=O)c1sc(NC(=O)CSc2nnc(C)s2)c(C(=O)OCC)c1C,inactive,–

# Reprinted at random: 3 compounds from above
Compound,Potency,"activity change, negative = inhibition"
NS(=O)(=O)c1ccc(NC(=O)COC(=O)c2ncc(Cl)c(Cl)c2Cl)cc1,"inconclusive: 0.355 µM [inhibitor, full curve, poor fit]",–
COc1ccc2cnn(CC(=O)Nc3cc(F)cc(F)c3)c(=O)c2c1OC,inactive,–
CC(C)(C)c1ccc(C2=NC(=O)C(CC(=O)O)S2)cc1 (centres undefined),"inconclusive: 50.1 µM [inhibitor, partial curve, poor fit]",–

# Next part

Compound,Potency,"activity change, negative = inhibition"
CCOC(=O)C1CCCC12Nc1cccc3cccc(c13)N2 (centres undefined),"inconclusive: 35.5 µM [inhibitor, partial curve, poor fit]",–
COC(=O)c1ccc(OCC(=O)c2ccc3c(c2)CCO3)c(OC)c1,"inconclusive: 0.355 µM [inhibitor, full curve, poor fit]",–
CCOC(=O)C1=CN(c2cccc(F)c2)C=C(C(=O)OCC)C1c1cc(OC)c(O)c([N+](=O)[O-])c1,"inconclusive: 1 µM [inhibitor, full curve]",–
CC(C)N1CCc2c(C#N)c(NCc3ccccc3)n3cnnc3c2C1,inactive,–
Cc1ccc(S(=O)(=O)N2CCN(c3ccc(NCc4ccccc4)nn3)CC2)cc1C,inactive,–
CN(C)C(=O)c1cccc(-c2csc(N3CCC(C(N)=O)CC3)n2)c1,"inconclusive: 141 µM [inhibitor, single point]",–
CC(C)Oc1ccc(CNC(=O)CCCN2C(=O)c3cccnc3Oc3ccc(Cl)cc32)cc1,"inconclusive: 141 µM [inhibitor, partial curve, poor fit]",–
CC1CCN(c2oc(-c3ccco3)nc2S(=O)(=O)c2ccccc2)CC1,"inconclusive: 44.7 µM [inhibitor, single point]",–
CC1=NN(c2cccc(Cl)c2)C(=O)C1,"inconclusive: 112 µM [inhibitor, single point]",–
CCC(=O)N1CCc2cc(Br)cc(S(=O)(=O)Nc3ccc(C)cc3C)c21,"inconclusive: 15.8 µM [inhibitor, partial curve, poor fit]",–
O=C(NCc1cccn1Cc1ccccc1F)Nc1ccc(F)cc1,inactive,–
Cc1nc2c3ccccc3nc(NNC(=O)CCC(=O)N3CCC(C)CC3)n2n1,inactive,–
Cc1cc(C)c2ccc(/C=N/O)nc2c1O,"inconclusive: 35.5 µM [inhibitor, partial curve, poor fit]",–
COc1cccc(NC(=O)CN(C)C(C)C(=O)Nc2cc([N+](=O)[O-])ccc2Cl)c1 (centres undefined),inactive,–
Cc1ccc(/C=C2/NC(=O)N(Cc3ccc(Br)cc3)C2=O)o1,active: 44.7 µM,–
O=S(=O)(NC1CCCCCCC1)c1ccc(F)cc1,"inconclusive: 112 µM [inhibitor, single point]",–
COC(=O)c1ccccc1NC(=S)N(C)C,inactive,–
Cc1ccc(CNC(=O)N2CCCCCNC(=O)CC2c2ccccc2)cc1 (centres undefined),inactive,–
CNCCNC(=O)C1CCN(c2nc(-c3ccccc3)nc3c2CCC3)CC1,"inconclusive: 7.94 µM [inhibitor, full curve]",–
O=C(NCCc1c[nH]c2ccccc12)c1ccc(Cl)c(Cl)c1,"inconclusive: 50.1 µM [inhibitor, partial curve, poor fit]",–
CCC(=O)N1N=C(c2ccc(C)o2)CC1c1ccc(N(C)C)cc1 (centres undefined),inactive,–
CC(=O)/C(N=Nc1ccc(OC(F)(F)F)cc1)=C(\C)O,"inconclusive: 100 µM [inhibitor, single point]",–
CN1C=C/C(=C\c2cc[n+](C)c3ccccc23)c2ccccc21,"inconclusive: 56.2 µM [inhibitor, partial curve, poor fit]",–
